Assay results reported in publication PMC11345830, “Exploration of Hydrazide-Based HDAC8 PROTACs for the Treatment of Hematological Malignancies and Solid Tumors” (Journal of Medicinal Chemistry, 2024).

Columns and labels:
Assay type in all cases: cell-based
HCT116 cells = test: Cell viability MTS assay, HCT116; conditions: Homo sapiens, HCT-116, 72 h, read-out: IC50 antiproliferative, HCT116
Description: (§1) MTS assay was used to measure the cell viability. For single treatment, Jurkat, THP-1 and HEL (8000 cells/well), HCT116 and A549 (2000 cells/well) were seeded in 96-well plates in 100 μL complete medium. After overnight incubation, 50 μL of media containing various concentrations of compounds or the vehicle were added to each well. For cotreatment, cells were seeded in 96-well plates in 50 μL complete medium. After overnight incubation, 50 μL of Z-VAD-FMK, Nec-1, Fer-1, CQ, and other indicated compounds were added to each well. One hour later, 50 μL of media containing various concentrations of compounds were added to each well. After 72 h of treatment, 20 μL of CellTiter 96 AQueous One Solution reagent (Promega, Madison, USA) was added to each well according to manufacturer’s protocol. Plates were incubated at 37 °C for 1–2 h. The absorbance was determined at a wavelength of 490 nm using a Synergy H1 plate reader (Biotek, Winooski, VT, USA).

THP-1 cells = test: Cell viability MTS assay, THP-1; conditions: Homo sapiens, 72 h, read-out: IC50 antiproliferative, THP-1
Description: as §1

Jurkat cells = test: Cell viability MTS assay, Jurkat; conditions: Homo sapiens, 72 h, read-out: IC50 antiproliferative, Jurkat
Description: as §1

A549 cells = test: Cell viability MTS assay, A549; conditions: Homo sapiens, 72 h, read-out: IC50 antiproliferative, A549
Description: as §1

HEL cells = test: Cell viability MTS assay, HEL; conditions: Homo sapiens, 72 h, read-out: IC50 antiproliferative, HEL
Description: as §1

In the case of `O=C(CCCCCCC(=O)Nc1ccccc1)NO` [SAHA], the IC50 (HCT116 cells) is reported as 720 ± 50 nM, the IC50 (THP-1 cells) is reported as 620 ± 50 nM and the IC50 (Jurkat cells) is reported as 380 ± 50 nM. It also gave an IC50 (A549 cells) of 3500 ± 300 nM and an IC50 (HEL cells) of 720 nM.
